For at least one compound, name, drawing or mass did not settle the structure.
Test system: wild type HBV or resistant variants of HBV (polymerase M204V, M204I, L180M, L180M/M204V, N236T)
Assay: Antiviral assays in cells chronically infected with wild type HBV or resistant variants (Example 4)
Assay type: cell-based
Conditions: added to the cells daily for nine consecutive days
Procedure: Antiviral assays were carried out in cells chronically infected with resistant variants of HBV. In order to gauge the efficacy of Formula (IIa) and the antiviral nucleoside analogs lamivudine (3TC) and adefovir dipivoxil (ADV) against the tested strains, the in vitro activity (EC50, μM) was determined using six different cell samples chronically infected with HBV. Each cell sample was infected with either wild type HBV or a resistant variant of HBV, wherein the resistant variants comprise mutations in the HBV polymerase (P) at the following amino acid positions: M204V, M204I, L180M, L180M/M204V, and N236T. In each assay, Formula (IIa), 3TC, or ADV was added to the cells daily for nine consecutive days.

Nc1ccn([C@@H]2CS[C@H](CO)O2)c(=O)n1 [Formula 3TC, lamivudine]
efficacy against cells infected with wild type and resistant HBV strains (in vitro activity, FIG. 31): only effective against less than half of the resistant HBV strains tested

Reference: patent US20180110796A1, “COMPOSITIONS AND METHODS FOR THE TREATMENT OF HBV INFECTION” (Spring Bank Pharmaceuticals, Inc., priority 2015, published 2018)
